These are yes or no findings as the source states them, for the method shown. Some binding calls cover weakened binding; strength is not graded here.
Biological target: mouse BLyS (mouse) (UniProt Q9WU72)
Assay: phage ELISA

Chains of the proteins cited; added tags and fusions are not shown. Residues count along the entry.
UniProt Q9WU72, residues 127-309: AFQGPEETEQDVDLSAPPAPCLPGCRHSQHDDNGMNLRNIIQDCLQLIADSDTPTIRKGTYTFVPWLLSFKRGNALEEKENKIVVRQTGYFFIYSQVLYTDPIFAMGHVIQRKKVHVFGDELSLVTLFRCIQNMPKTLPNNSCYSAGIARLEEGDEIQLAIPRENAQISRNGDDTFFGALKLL

Row | binding | Binder
1 | binds | I028A06 (scFv) scFv: QVQLVESGGGLIQPGGSLRLSCAASGFSFGSYAMSWIRQAPGKGLEWVSTSTGRGGSTYYADSVKGRFTISRDNAKNSLYLQMNSLRAEDAAVYYCARGGDYDILTGLYYYGMDVWGKGTMVTVSSGGGGSGGGGSGGGGSSYVLTQPPSVSGTPGQRVTISCSGGRSNIGSNTVKWYQQLPGTAPKLLIYGNDQRPSGVPDRFSGSKSGTSASLAITGVQAEDEADYYCQSYDSSLRGSRVFGTGTKVTVLG
2 | binds | I050A12 (scFv) scFv: EVQLVQSGAEVKKPGSSVKVSCKASGDTFSHYAINWVRQAPGQGLEWMGGIIPTFNAVKYAQKFQGRATITADGSTSTAYMELNSLRSEDTAVYYCATAPYDLLTHYFHYFDYWGQGTMVTVSSGGGGSGGGGSGGGGSALSSELTQDPAVSVTLGQTVRITCQGDSLRSYYPSWYQQKPGQAPVLVIYPKNIRPSGIPDRFSGSSSGNTASLTITGAQAEDEADYYCNSRASSGNHYVFATGTKLTVLG
3 | binds | I031G08 (scFv) scFv: QVQLVQSGAEVKKPGSSVKVSCRASGGSFIDDSINWLRQAPGQGLEWVGGTIPLANRANYAQKFRDRATITADELTATVFLELTSLRSDDTALYYCARSSPPKWYDALTGHSSYHSAMDVWGRGTLVTVSSGGGGSGGGGSGGGGSAQSVLTQPPSASGTPGQRVTISCSGTNSNIGGNTVNWYQQLPGTAPRLLIYSNNQRPSGVPDRFSGSKSGTSASLAISGLQSEDEADYYCAARDDRLNAHVVFGGGTKVTVLG
4 | binds | I067F05 (scFv) scFv: QVQLQQSGAEVKKPGSSVKVSCKASGGTFSSYAISWVRQAPGQGLEWMGRIIPIVNMANYAQKFQGRVTLTADKSTGTAYMELTSLRSEDTAVYYCARENYDSLTGYYGAFDIWGKGTMVTVSSGGGGSGGGGSGGGGSQSVLTQPASVSGSPGQSITISCTGTSSDVGGYNYVSWYQQHPGKAPKLMIYEGSKRPSGVSNRFSGSKSGNTASLTISGLQAEDEADYYCSSYTTRSTRVFGGGTKLTVLG
5 | binds | I031F02 (scFv) scFv: QVQLVQSGAEVRKPGSSVKVSCKASGGSFSSHVFSWVRQAPGQGLEWVGGITPKFATPNYAQKFQHRVTITADELTRTVFMDLSGLRSEDTAVYYCARGYDSSAFRAFDIWGQGTMVTVSSGGGGSGGGGSGGGGSAQSVLTQPPSVSGAPGQRVTISCTGSSSNIGAGYDVQWYQQLPGTAPKLLIHGNNNRPSGVPDRFSGSKSGTSASLAITGLQDEDEADYYCQSYDSSLSFSGYVFGTGTKVTVLG
6 | binds | I006D08 (scFv) scFv: QVQLQQSGAEVKKPGSSVRVSCKASGGTFNNNAINWVRQAPGQGLEWMGGIIPMFGTAKYSQNFQGRVAITADESTSTASMELSSLRSEDTAVYYCARSRDLLLFPHYGMDVWGRGTMVTVSSGGGGSGGGGSGGGGSAFSSELTQDPAVSVALGQTVRVTCQGDSLRSYYASWYQQKPGQAPVLVIYGKNNRPSGIPDRFSGSSSGNTASLTITGAQAEDEADYYCNSRDSSGNHWVFGGGTELTVLG
7 | binds | I031F09 (scFv) scFv: QVQLVQSGAEVKKPGASVKVSCTVSGDSFSRHGISWVRQAPGQGLEWMGWISVYNGDTKYAQKVQGRVTMTTDTSTNTVYMELRRLRSDDTAVYYCARDEGRDLLTGYYWPNFFDSWGRGTLVTVSSGGGGSGGGGSGGGGSALSYVLTQPPSASGTPGQRVTISCSGSRPNIGGNTVNWYQQLPGAAPKLLIYSNSQRPSGVPDRFSGSKYGTSASLAISGLQSDDEADYYCAAWDDSLTGPVFGGGTKLTVLG
8 | binds | I031G11 (scFv) scFv: QVQLVQSGAEVKKPGASVKVSCTVSGDSFSRHGISWVRQAPGQGLEWMGWISVYNGDTKYAQKVQGRVTMTTDTSTNTVYMELRRLRSDDTAVYYCARDEGRDLLTGYYWPNFFDSWGRGTLVTVSSGGGGSGGGGSGGGGSALSYVLTQPPSVSGTPGQKVTISCSGSRPNIGGNTVNWYQQLPGAAPKLLIYSNSQRPSGVPDRFSGSKYGTSASLAISGLQSDDEADYYCAAWDDSLTGPVFGGGTKLTVLG
9 | binds | I078D02 (scFv) scFv: QVQLQQSGAEVKKPGASVKVSCKASGYTFTSYGISWVRQAPGQGLEWMGWISAYNGNTNYAQKLQGRVTMTTDTSTSTAYMELRSLRSDDTAVYYCARVYYDILTGYNLFFDYWGKGTMVTVSSGGGGSGGGGSGGGGSQSVLTQPASVSGSPGQSITISCTGTSSDVGGYNYVSWYQQHPGKAPKLMIYEGSKRPSGVSNRFSGSKSGNTASLTISGLQAEDEADYYCSSYTTRSTRVFGGGTKLTVLG
10 | binds | I012A06 (scFv) scFv: QVQLQESGPGVVKPSQTLSLTCTVSGVSISSDSYYWSWIRQPAGKGPEWIGRIYPTGSTNYNPSLKSRVTISVDTSKNQFSLQLTSVTAADTAVYYCARGRWDYDLLTGEHLGYYFDYWGRGTLVTVSSGGGGSGGGGSGGGGSALSSELTQDPAVSVALGQTVRITCQGDTLRNYYASWYQQKPGQAPVLVIHSRNNRPSGIPDRFSGSSSGTTASLTITGSQAEDEADYYCNSRDSSGNVIFGGGTKLTVLG
11 | binds | I031C07 (scFv) scFv: EVQLVQSGAEVKKPGSSVKVSCRASGGSFIDGSINWLRQAPGQGLEWVGGTIPLANRANYAQKFRDRVTITADELTAIVFLELTSLRSDDTALYYCARSSPPRWYDALTGDSSYHSAMDVWGQGTMVTVSSGGGGSGGGGSGGGGSAQSALTQPPSASGSPGQSVTISCSGTSSDIGDSNSVSWYQQHPGKAPKLLIYEVTKRPSGVPDRFAGSRSDNTASLTVSGLQTEDEADYYCSSSAARNHLVFGGGTKVTVLG
12 | binds | I021B05 (scFv) scFv: QVQQSGADVKKPGGSLRLSCAASGFTFSSYSMNWVRQAPGKGLEWVSSISSSSSYIYYADSVKGRFTISRDNAKNSLYLQMNSLRAEDTAVYYCAREGGNYDILTGYYIGNGAFDIWGRGTMVTVSSGGGGSGGGGSGGGGSQSVLTQPASVSGSPGQSITISCTGTSSDVGGYNYVSWYQQHPGKAPKLMIYEGSKRPSGVSNRFSGSKSGNTASLTISGLQAEDEADYYCSSYTTRSTRVFGGGTKLTVLG
13 | binds | I031C03 (scFv) scFv: QMQLVQSGAEVRKPGSSVKVSCKASGGSFSSHVFSWVRQAPGQGLEWVGGITPKFATPNYAQKFQHRVTITADELTRTVFMDLSGLRSEDTAVYYCARGYDSSAFRAFDIWGQGTLVTVSSGGGGSGGGGSGGGGSAQSVLTQPPSVSAAPGQKVTISCSGSSSNIGNNYVSWYQQFPGTAPKLLIYDNNNRPSGVPDRFSGSKSGTSATLGITGLQTGDEADYYCGTWDRSLSVVVFGGGTKVTVLG
14 | binds | I008C02 (scFv) scFv: AVQLQESGPGLVKPSETLSLTCSVSGASMTTNKFYWSWIRQPPGKGLEWIGNINYSKSTNYNPSLKSRITISVDTSKNQLSLKLNSVTAADTAVYYCARHVRDYDILTGYYRGHYFDYWGQGTMVTVSSGGGGSGGGGSGGGGSQSVLTQPASVSGSPGQSITISCTGTSSDVGGYNYVSWYQQHPGKAPKLMIYEGSKRPSGVSNRFSGSKSGNTASLTISGLQAEDEADYYCSSYTTRSTRVFGGGTKLTVLG
15 | binds | I051C04 (scFv) scFv: QVQLQQSGAEVKKPGSSVKVSCRTSGGTFSNYGLSWVRQAPGQGLEWMGGVIPISSTIKYGQKFQDRLTIAADDLTNTTFMELSSLRPEDTAVYYCARAATTSQKHNKYAYYFYGMDVWGQGTMVTVSSGGGGSGGGGSGGGGSAQSALTQPASVSGSPGQSITISCTGTSSDVGGYNYVSWYQQHPGKAPKLMIYEVSNRPSGVSNRFSGSKSGNTASLTISGLQAEDEADYYCSSYTSSSTLVFGGGTKVTVLG
16 | binds | I018C02 (scFv) scFv: QVQLQQSGSELKKPGASVIVSCKVSGYSLTKMSMHWVRQSPGEGLEWVGGIDPETRQPVYAQKFQGRVTITKDTSASAAYMELSSLGSEDTALYYCARATYDPLTGYSFDGFDIWGQGTLVTVSSGGGGSGGGGSGGGGSQSVLTQPASVSGSPGQSITISCTGTSSDVGGYNYVSWYQQHPGKAPKLMIYEGSKRPSGVSNRFSGSKSGNTASLTISGLQAEDEADYYCSSYTTRSTRVFGGGTKLTVLG
17 | binds | I016F04 (scFv) scFv: QVQLQQSGSELKKPGASVKVSCKVSGYSLTKMSMHWVRQSPGEGLEWVGGIDPETRQPVYAQKFQGRVTITKDTSASAAYMELSSLGSEDTALYYCARATYDPLTGYSFDGFDIWGQGTLVTVSSGGGGSGGGGSGGGGSQSVLTQPASVSGSPGQSITISCTGTSSDVGGYNYVSWYQQHPGKAPKLMIYEGSKRPSGVSNRFSGSKSGNTASLTISGLQAEDEADYYCSSYTTRSTRVFGGGTKLTVLG
18 | binds | I031G10 (scFv) scFv: QVQLVQSGAEVKKPGSSVKVSCRVSGGSFTDDSINWLRQAPGQGLEWVGGTIPLANRANYAQKFRDRVTITADELTATVFLELTSLRSDDTALYYCARSSPPKWYDALTGDSSYHSAMDVWGRGTLVTVSSGGGGSGGGGSGGGGSAQSVVTQPPSVSAAPGQKVTISCSGSTSNIGRNYVSWYQQLPGTATKLLIYDNNKRPSGIPDRFSGSKSGTSATLGITGLQTGDEADYYCGTWDSSLRIYVFGTGTKVTVLG
19 | binds | I008B01 (scFv) scFv: QVQLVQSGAEVMKPGASVKVSCKASGYNFNNYAMQWVRQAPGQRLEWMGWIVPGNGKTKYSQKFQDRVTIARDTSASTVYMELSSLTSEDTAMYYCARATYDPLTGYSFDGFDIWGQGTTVTVSSGGGGSGGGGSGGGGSQSVLTQPASVSGSPGQSITISCTGTSSDVGGYNYVSWYQQHPGKAPKLMIYEGSKRPSGVSNRFSGSKSGNTASLTISGLQAEDEADYYCSSYTTRSTRVFGGGTKLTVLG

Reference: patent US20030223996A1 (published 2003)
